PubChem BioAssay AID1224828, NIAID, 2016

- Screen: 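Regulators linking TLR4 signalling to p65 nuclear translocation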 (primary screen)
- Cells: mouse RAW264.7 G9 macrophage reporter cells (GFP-p65, Tnf promoter-mCherry)
- Knock-down reagent: siRNA pool against mouse genes, 100 nM
- Timing: 2 days siRNA transfection, then 40 min LPS before fixation
- Challenge: LPS (Salmonella minnesota R595) at 10 ng/ml
- Measured: 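Microscopy ratio of nuclear to perinuclear-ring GFP-p65 signal, scaled to the plate median; gene score is the average of two replicate robust z-scores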
- Scale: p65 translocation robust z-score: higher = more nuclear NF-kappaB p65 after LPS than the plate median; nuclear/cytoplasmic p65 ratio: higher = more nuclear NF-kappaB p65
- Rule for the call: 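Active if robust z is above 3.3 (negative regulators) or below -1.56, the Tlr4 control median (positive regulators); activity score 50 or more; control wells not called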
- Calls: active = hit (p65 shift raised or lowered); inactive = no clear change
Shown is an unselected part of about 17,000 reagents tested. Over the whole deposit, 762 (4.5%) were called active. 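Active calls include both raised and lowered p65 entry, mostly lowered; wells with fewer than 50 cells lack a z-score.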 Raw values are not corrected between plates. Reagents against one gene are numbered here.

Or4f47 (GeneID 258440) → p65 translocation robust z-score = 0.78; nuclear/cytoplasmic p65 ratio, rep 1 = 1.62; nuclear/cytoplasmic p65 ratio, rep 2 = 1.62; low cell count flag = enough cells to score; Outcome = inactive
Adgrl3 (GeneID 319387) → p65 translocation robust z-score = 0.99; nuclear/cytoplasmic p65 ratio, rep 1 = 1.58; nuclear/cytoplasmic p65 ratio, rep 2 = 1.79; low cell count flag = enough cells to score; Outcome = inactive
Mgarp (GeneID 67749) → p65 translocation robust z-score = 0.84; nuclear/cytoplasmic p65 ratio, rep 1 = 1.29; nuclear/cytoplasmic p65 ratio, rep 2 = 1.48; low cell count flag = enough cells to score; Outcome = inactive
Rad9b (GeneID 231724) #1 → nuclear/cytoplasmic p65 ratio, rep 1 = 1.4; nuclear/cytoplasmic p65 ratio, rep 2 = 1.05; low cell count flag = fewer than 50 cells per well; well left out of scoring; Outcome = inactive
Rad9b (GeneID 231724) #2 → p65 translocation robust z-score = 0.19; nuclear/cytoplasmic p65 ratio, rep 1 = 1.48; nuclear/cytoplasmic p65 ratio, rep 2 = 1.47; low cell count flag = enough cells to score; Outcome = inactive
Mrps31 (GeneID 57312) → p65 translocation robust z-score = 0.98; nuclear/cytoplasmic p65 ratio, rep 1 = 2.03; nuclear/cytoplasmic p65 ratio, rep 2 = 1.67; low cell count flag = enough cells to score; Outcome = inactive
Msx1 (GeneID 17701) → p65 translocation robust z-score = -0.43; nuclear/cytoplasmic p65 ratio, rep 1 = 1.4; nuclear/cytoplasmic p65 ratio, rep 2 = 1.28; low cell count flag = enough cells to score; Outcome = inactive
Tars1 (GeneID 110960) → nuclear/cytoplasmic p65 ratio, rep 1 = 1.67; nuclear/cytoplasmic p65 ratio, rep 2 = 1.35; low cell count flag = fewer than 50 cells per well; well left out of scoring; Outcome = inactive
Ubald2 (GeneID 319370) → nuclear/cytoplasmic p65 ratio, rep 1 = 1.29; nuclear/cytoplasmic p65 ratio, rep 2 = 1.17; low cell count flag = fewer than 50 cells per well; well left out of scoring; Outcome = inactive
Naglu (GeneID 27419) → p65 translocation robust z-score = -0.13; nuclear/cytoplasmic p65 ratio, rep 1 = 1.34; nuclear/cytoplasmic p65 ratio, rep 2 = 1.41; low cell count flag = enough cells to score; Outcome = inactive
B630019K06Rik (GeneID 102941) → p65 translocation robust z-score = 1.11; nuclear/cytoplasmic p65 ratio, rep 1 = 1.73; nuclear/cytoplasmic p65 ratio, rep 2 = 2.05; low cell count flag = enough cells to score; Outcome = inactive
Akp3 (GeneID 11648) → p65 translocation robust z-score = -0.77; nuclear/cytoplasmic p65 ratio, rep 1 = 1.51; nuclear/cytoplasmic p65 ratio, rep 2 = 1.49; low cell count flag = enough cells to score; Outcome = inactive
Plpp2 (GeneID 50784) → p65 translocation robust z-score = -1.4; nuclear/cytoplasmic p65 ratio, rep 1 = 1.26; nuclear/cytoplasmic p65 ratio, rep 2 = 1.27; low cell count flag = enough cells to score; Outcome = inactive
5430414B19Rik (GeneID 73846) → p65 translocation robust z-score = -1.62; nuclear/cytoplasmic p65 ratio, rep 1 = 1.18; nuclear/cytoplasmic p65 ratio, rep 2 = 1.22; low cell count flag = enough cells to score; Outcome = active

2 entries already listed, arranged by “nuclear/cytoplasmic p65 ratio, rep 1”, lowest first:
Akp3 (GeneID 11648) → p65 translocation robust z-score = -0.77; nuclear/cytoplasmic p65 ratio, rep 1 = 1.51; nuclear/cytoplasmic p65 ratio, rep 2 = 1.49; low cell count flag = enough cells to score; Outcome = inactive
B630019K06Rik (GeneID 102941) → p65 translocation robust z-score = 1.11; nuclear/cytoplasmic p65 ratio, rep 1 = 1.73; nuclear/cytoplasmic p65 ratio, rep 2 = 2.05; low cell count flag = enough cells to score; Outcome = inactive
